Record: PubChem BioAssay AID652243 (Drosophila RNAi Screening Center, 2013)
In all, the deposit lists about 24,000 reagents; this is an unselected part of those with a known target gene and a result. Of all reagents, 246 (1%) are marked active. 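Plates not normalised; calls are printed but the firefly/Renilla ratio behind them is not deposited; fold cut for lowering reported inconsistently.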 Raw values are not corrected between plates. Reagents against one gene are numbered here. Names joined by + are all predicted targets of the reagent. The record does not give: the amount of reagent.

Screen: 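Knock-downs that decrease or increase androgen receptor reporter signal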 (primary screen)
Cell system: Drosophila S2R+ cells
Knock-down reagent: long dsRNA against Drosophila genes
Time to read-out: 72 h (48 h, then 24 h hormone)
Conditions: synthetic androgen R1881 at 10 nM for 24 h
Detection: 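Per-well raw luminescence of the androgen-driven firefly reporter and of the Renilla control, two replicates each, without normalisation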
Direction: firefly reporter light: higher = more light from androgen-responsive reporter; Renilla control light: higher = more constitutive control signal (cell number, transfection)
Call rule: 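Hit when the log firefly-to-Renilla ratio dropped or increased by a fixed fold versus the mean of GFP or LacZ controls across duplicate plates; lowering cut given as 1.5 and as 3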
Meaning of the calls: active = hit: reporter lowered or raised; inactive = no hit

no.	gene knocked down	reagent no.	firefly reporter light, replicate 1	firefly reporter light, replicate 2	Renilla control light, replicate 1	Renilla control light, replicate 2	Call
1	NimC4	1	2.09e5	55400	1.22e6	8.64e5	inactive
2	CG13287	1	4.19e5	3.93e5	2.85e6	3.52e6	inactive
3	CG13287	2	3.78e5	3.34e5	6.67e5	4.84e5	inactive
4	lncRNA:CR42862	1	1.02e6	1.02e6	1.72e6	1.69e6	inactive
5	lncRNA:CR42862	2	1.92e5	1.84e5	6.55e5	5.47e5	inactive
6	lncRNA:CR42862	3	7.63e5	9.30e5	1.86e6	1.80e6	inactive
7	CG10920	1	1.54e5	2.21e5	1.60e6	1.77e6	inactive
8	l(1)G0020	1	3.11e5	3.52e5	3.91e6	2.84e6	inactive
9	CG12420	1	3.99e5	4.16e5	2.83e6	2.77e6	inactive
10	ARY (retired record)	1	9.22e5	7.54e5	2.04e6	1.35e6	inactive
11	Spt-I	1	4.60e5	2.96e5	3.03e6	2.57e6	inactive
12	Spt-I	2	3.37e5	2.35e5	8.96e5	3.24e5	inactive
13	nur	1	2.05e5	2.16e5	6.42e5	6.25e5	inactive
14	nur	2	1.82e5	3.68e5	4.34e5	4.34e5	inactive
15	CG12112	1	1.05e5	99630	7.62e5	8.10e5	inactive
16	CysRS-m	1	1.27e6	1.40e6	2.60e6	2.52e6	inactive
17	UGP + PGRP-LF	1	1.92e5	2.29e5	2.11e6	2.13e6	inactive
18	CG14459	1	1.01e6	1.13e6	1.51e6	1.66e6	inactive
19	CG33702	1	7.62e5	7.43e5	2.38e6	1.80e6	inactive
20	CG15625	1	1.11e5	56835	1.40e6	5.78e5	inactive
21	CG15625	2	4.00e5	4.90e5	1.71e6	1.45e6	inactive
22	CG15625	3	6.84e5	6.21e5	1.23e6	1.42e6	inactive
23	CG13230	1	4.38e5	2.66e5	1.80e6	1.92e6	inactive
24	CG13230	2	4.52e5	3.13e5	7.57e5	3.92e5	inactive
25	CG6847	1	6.65e5	3.62e5	2.60e5	2.11e5	inactive
26	CG6847	2	6.14e5	5.39e5	3.09e6	3.08e6	inactive
27	Elba3	1	8.00e5	7.88e5	1.82e6	2.32e6	inactive
28	CG6163	1	1.30e5	1.68e5	1.53e6	1.31e6	inactive
29	CG6163	2	3.33e5	2.18e5	4.92e5	3.87e5	inactive
30	CG4854	1	1.72e5	1.86e5	2.69e6	2.53e6	inactive
31	CG4854	2	1.73e5	2.65e5	7.89e5	7.86e5	inactive
32	CG15056	1	5.65e5	4.92e5	4.19e6	3.10e6	inactive
33	CG8202	1	1.21e5	1.78e5	1.83e6	2.32e6	inactive
34	CG4238	1	93132	1.15e5	7.98e5	9.12e5	inactive
35	lncRNA:CR43242	1	3.92e5	3.35e5	2.36e6	1.85e6	inactive
36	org-1	1	9.75e5	1.06e6	1.01e6	1.01e6	inactive
37	org-1	2	2.62e5	3.62e5	8.43e5	7.06e5	inactive
38	CG11444	1	77511	53568	6.71e5	4.03e5	inactive
39	CG11444	2	6.24e5	7.14e5	6.92e5	6.94e5	inactive

Next part, starting with the last 6 of the part before.
no.	gene knocked down	reagent no.	firefly reporter light, replicate 1	firefly reporter light, replicate 2	Renilla control light, replicate 1	Renilla control light, replicate 2	Call
34	CG4238	1	93132	1.15e5	7.98e5	9.12e5	inactive
35	lncRNA:CR43242	1	3.92e5	3.35e5	2.36e6	1.85e6	inactive
36	org-1	1	9.75e5	1.06e6	1.01e6	1.01e6	inactive
37	org-1	2	2.62e5	3.62e5	8.43e5	7.06e5	inactive
38	CG11444	1	77511	53568	6.71e5	4.03e5	inactive
39	CG11444	2	6.24e5	7.14e5	6.92e5	6.94e5	inactive
40	CG18294	1	2.40e5	1.98e5	3.57e6	3.35e6	inactive
41	CG10570 + CG42502	1	1.72e5	5.64e5	8.07e5	1.13e6	inactive
42	hpo	1	4.76e5	5.41e5	1.03e6	1.29e6	inactive
43	hpo	2					inactive
44	hpo	3					inactive
45	Obp69a	1	1.80e5	1.40e5	1.92e6	1.59e6	inactive
46	Obp69a	2	2.20e5	2.16e5	4.02e5	5.99e5	inactive
47	SCCRO4	1	1.00e5	1.16e5	2.18e6	2.27e6	inactive
48	Sas10	1	2.18e5	1.91e5	2.02e6	2.92e6	inactive
49	Ant2	1	1.24e5	1.10e5	7.99e5	8.54e5	inactive
50	Ant2	2	2.90e5	4.14e5	6.46e5	7.15e5	inactive
51	CG12237	1	2.96e5	3.96e5	2.15e6	2.74e6	inactive
52	CG12237	2	5.31e5	7.63e5	8.20e5	9.02e5	inactive
53	CG12237	3	1.03e6	1.06e6	1.27e6	1.33e6	inactive
54	CG32642	1	6.46e5	5.25e5	7.05e5	3.60e5	inactive
55	CG32642	2	9.23e5	7.38e5	1.82e6	1.31e6	inactive
56	ZnT63C	1	1.33e5	1.71e5	3.03e5	2.93e5	inactive
57	ZnT63C	2	1.29e5	1.40e5	1.67e5	2.11e5	inactive
58	ZnT63C	3	4.99e5	1.35e6	7.55e5	1.78e6	inactive
59	ZnT63C	4	1.16e5	1.04e5	7.45e5	6.28e5	active
60	ZnT63C	5	7.56e5	8.78e5	8.47e5	8.85e5	inactive
61	knk	1	1.42e5	1.57e5	1.42e6	2.35e6	inactive
62	CG34279	1	8.07e5	7.32e5	1.62e6	1.69e6	inactive
63	MESR6	1	51086	79788	6.65e5	4.08e5	inactive
64	MESR6	2	3.98e5	5.91e5	8.68e5	1.41e6	inactive
65	mahj	1	7.62e5	6.72e5	1.58e6	2.22e6	inactive
66	boil	1	2.56e5	4.28e5	3.22e6	3.04e6	inactive
67	yellow-b	1	9.75e5	1.10e6	1.62e6	1.19e6	inactive
68	CG14767	1	9.51e5	6.49e5	2.08e6	1.20e6	inactive
69	CG14767	2	6.10e5	7.66e5	7.32e5	8.71e5	inactive
70	CG34298	1	7.70e5	6.17e5	1.42e6	1.83e6	inactive
71	CG4882	1	2.71e5	2.40e5	1.52e6	8.26e5	inactive
72	CG4882	2	5.04e5	4.96e5	1.08e6	1.30e6	inactive
73	Etl1	1	1.22e6	1.09e6	1.98e6	2.19e6	inactive
74	Prosbeta4R1	1	9.20e5	9.64e5	1.81e6	2.02e6	inactive
